Reference: patent US4162248 (dated 1979)

Assay: general procedure: Boc solid-phase peptide synthesis; O-CH2-phi-resin, 0.43 mmole peptide per g

Substance | cyclisation yield (cyclisation step) [%] | step yield (late stage modification step) [%]
Cyclo[Asn-Phe-Phe-D-Trp-(ε-INOC)Lys-O-Bzl-Thr-Phe-O-Bzl-Thr] | 98 | 
Cyclo[Asn-Phe-Phe-D-Trp-(ε-INOC)Lys-Thr-Phe-Thr] |  | 91.5
